Assay results as given in paper PMC9098222.
These are yes or no findings as the source states them, for the method shown. In cells and extracts the contact can be indirect. Some entries that bind do so weakly or less than the wild type. Sequences can lack the tags named with a protein.

B1: GFP-FER 563–822 (kinase domain) (domain or fragment, UniProt P16591 563-822)
chain: VILGELLGKGNFGEVYKGTLKDKTSVAVKTCKEDLPQELKIKFLQEAKILKQYDHPNIVKLIGVCTQRQPVYIIMELVSGGDFLTFLRRKKDELKLKQLVKFSLDAAAGMLYLESKNCIHRDLAARNCLVGENNVLKISDFGMSRQEDGGVYSSSGLKQIPIKWTAPEALNYGRYSSESDVWSFGILLWETFSLGVCPYPGMTNQQAREQVERGYRMSAPQHCPEDISKIMMKCWDYKPENRPKFSELQKELTIIKRKLT
B2: YFP-tagged IRS4 401–1257 (domain or fragment, UniProt O14654 401-1257)
chain: TPSEPVAHSRRGRLHLPRGRRSRRAVSVPASFFRRLAPSPARPRHPAEAPNNGARLSSEVSGSGSGNFGEEGNPQGKEDQEGSGGDYMPMNNWGSGNGRGSGGGQGSNGQGSSSHSSGGNQCSGEGQGSRGGQGSNGQGSGGNQCSRDGQGTAGGHGSGGGQRPGGGHGSGGGQGPGDGHGSGGGKNSGGGKGSGSGKGSDGDGERGKSLKKRSYFGKLTQSKQQQMPPPPPPPPPPPPAGGTGGKGKSGGRFRLYFCVDRGATKECKEAKEVKDAEIPEGAARGPHRARAFDEDEDDPYVPMRPGVATPLVSSSDYMPMAPQNVSASKKRHSRSPFEDSRGYMMMFPRVSPPPAPSPPKAPDTNKEDDSKDNDSESDYMFMAPGAGAIPKNPRNPQGGSSSKSWSSYFSLPNPFRSSPLGQNDNSEYVPMLPGKFLGRGLDKEVSYNWDPKDAASKPSGEGSFSKPGDGGSPSKPSDHEPPKNKAKRPNRLSFITKGYKIKPKPQKPTHEQREADSSSDYVNMDFTKRESNTPAPSTQGLPDSWGIIAEPRQSAFSNYVNVEFGVPFPNPANDLSDLLRAIPRANPLSLDSARWPLPPLPLSATGSNAIEEEGDYIEVIFNSAMTPAMALADSAIRYDAETGRIYVVDPFSECCMDISLSPSRCSEPPPVARLLQEEEQERRRPQSRSQSFFAAARAAVSAFPTDSLERDLSPSSAPAVASAAEPTLALSQVVAAASALAAAPGIGAAAAAAGFDSASARWFQPVANAADAEAVRGAQDVAGGSNPGAHNPSANLARGDNQAGGAAAAAAAPEPPPRSRRVPRPPEREDSDNDDDTHVRMDFARRDNQFDSPKRGR
B3: GFP-FER 447–550 (SH2 domain) (domain or fragment, UniProt P16591 447-550)
chain: MISISEKPLAEQDWYHGAIPRIEAQELLKKQGDFLVRESHGKPGEYVLSVYSDGQRRHFIIQYVDNMYRFEGTGFSNIPQLIDHHYTTKQVITKKSGVVLLNPI

How the values were obtained:
[1] = biological target: T1, Myc-tagged IRS4 (insulin receptor substrate 4), full-length (human) (UniProt O14654); assay: co-IP; HEK293FT cells transiently co-transfected; lysis in 20 mM HEPES pH 7.5, 150 mM NaCl, 1% Nonidet P-40, 1 mM sodium orthovanadate; Myc-tagged IRS4 form precipitated with anti-Myc resin, partners found by immunoblot; some panels with or without co-expressed FLAG-IRS1, FLAG-PIK3R1 or FER
T1 sequence: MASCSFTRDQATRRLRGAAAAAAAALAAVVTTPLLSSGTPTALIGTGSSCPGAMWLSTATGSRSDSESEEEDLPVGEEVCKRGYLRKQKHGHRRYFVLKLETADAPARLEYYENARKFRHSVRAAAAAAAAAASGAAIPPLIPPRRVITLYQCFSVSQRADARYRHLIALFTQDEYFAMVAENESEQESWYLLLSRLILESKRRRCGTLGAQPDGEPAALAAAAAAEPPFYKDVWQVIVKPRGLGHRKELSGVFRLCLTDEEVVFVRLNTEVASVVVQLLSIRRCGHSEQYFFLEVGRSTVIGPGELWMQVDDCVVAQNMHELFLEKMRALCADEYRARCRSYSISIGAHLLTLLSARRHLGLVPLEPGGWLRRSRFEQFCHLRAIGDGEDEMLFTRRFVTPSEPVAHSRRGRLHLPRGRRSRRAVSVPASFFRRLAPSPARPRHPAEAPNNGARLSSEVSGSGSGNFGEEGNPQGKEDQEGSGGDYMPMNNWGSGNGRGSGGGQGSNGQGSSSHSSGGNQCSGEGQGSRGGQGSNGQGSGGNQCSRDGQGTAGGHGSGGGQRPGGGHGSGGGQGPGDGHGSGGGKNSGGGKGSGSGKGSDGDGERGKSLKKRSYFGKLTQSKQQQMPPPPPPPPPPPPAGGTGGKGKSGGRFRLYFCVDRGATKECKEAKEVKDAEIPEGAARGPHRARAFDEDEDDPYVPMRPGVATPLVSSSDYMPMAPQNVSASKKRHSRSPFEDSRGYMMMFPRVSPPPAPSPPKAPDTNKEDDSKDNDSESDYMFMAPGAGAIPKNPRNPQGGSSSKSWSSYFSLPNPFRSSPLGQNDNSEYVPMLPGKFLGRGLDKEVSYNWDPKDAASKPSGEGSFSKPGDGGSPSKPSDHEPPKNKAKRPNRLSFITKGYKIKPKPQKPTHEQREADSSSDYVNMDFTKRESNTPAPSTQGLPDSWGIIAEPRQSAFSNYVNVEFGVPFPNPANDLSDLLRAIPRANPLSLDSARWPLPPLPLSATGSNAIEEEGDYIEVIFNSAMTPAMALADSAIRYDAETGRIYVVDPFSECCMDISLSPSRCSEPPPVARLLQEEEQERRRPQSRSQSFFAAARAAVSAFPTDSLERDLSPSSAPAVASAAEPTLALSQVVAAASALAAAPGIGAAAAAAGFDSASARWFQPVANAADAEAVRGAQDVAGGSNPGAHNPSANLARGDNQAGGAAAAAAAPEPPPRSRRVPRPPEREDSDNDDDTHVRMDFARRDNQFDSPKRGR

[2] = biological target: T2, Myc-tagged IRS4 1–200 (PH domain only) (human) (UniProt O14654); assay: as above
T2 sequence: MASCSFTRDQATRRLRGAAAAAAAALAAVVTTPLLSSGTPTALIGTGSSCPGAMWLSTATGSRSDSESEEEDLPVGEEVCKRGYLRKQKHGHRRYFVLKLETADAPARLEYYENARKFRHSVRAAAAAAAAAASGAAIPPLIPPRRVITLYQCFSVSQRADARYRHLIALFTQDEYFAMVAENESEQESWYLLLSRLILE

[3] = biological target: T3, Myc-tagged IRS4 200–400 (PTB domain only) (human) (UniProt O14654); assay: as above
T3 sequence: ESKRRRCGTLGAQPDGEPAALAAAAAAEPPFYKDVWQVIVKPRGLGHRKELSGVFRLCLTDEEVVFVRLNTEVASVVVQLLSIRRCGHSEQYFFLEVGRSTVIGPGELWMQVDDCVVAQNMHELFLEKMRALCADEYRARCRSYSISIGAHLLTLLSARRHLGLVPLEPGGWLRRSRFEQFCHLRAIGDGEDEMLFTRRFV

GFP-tagged FER = GFP-tagged FER (UniProt P16591); assay: co-IP; HEK293FT cells co-transfected with GFP-tagged FER and YFP-tagged IRS4 truncations; immunoprecipitation with FER antibody, immunoblot with YFP antibody

| Binder | binding [1] | binding [2] | binding [3] | binding (GFP-tagged FER) |
| --- | --- | --- | --- | --- |
| B1 | binds | binds | binds | – |
| B2 | – | – | – | no binding |
| B3 | no binding | no binding | no binding | – |
